Laboratory results as given in PubChem BioAssay AID1671190 (National Center for Advancing Translational Sciences (NCATS), 2021).
Screen size: about 580,000 compounds; about 6,100 (1.1%) were called active. Inconclusive results, whose numbers are uncertain, are shown with a selection of clear calls. The call rests on the fitted dose curve; in most records, active means well fitted inhibition curve with a large enough effect; inconclusive means small, poorly fitted or top-dose-only effect, or another doubt; inactive means no such curve, though single readings can be large or run the other way. Potencies of inconclusive entries are doubtful fits and often do not repeat.
On the % scale 0 is the no-effect control and ±100 the full control effect; potency means the concentration at half of the fitted maximal effect.

Sequences of proteins named here, by UniProt entry; tags and fusion partners are left off. A change or cut given only in a name is not applied to a line headed by its entry.
UniProt P18054: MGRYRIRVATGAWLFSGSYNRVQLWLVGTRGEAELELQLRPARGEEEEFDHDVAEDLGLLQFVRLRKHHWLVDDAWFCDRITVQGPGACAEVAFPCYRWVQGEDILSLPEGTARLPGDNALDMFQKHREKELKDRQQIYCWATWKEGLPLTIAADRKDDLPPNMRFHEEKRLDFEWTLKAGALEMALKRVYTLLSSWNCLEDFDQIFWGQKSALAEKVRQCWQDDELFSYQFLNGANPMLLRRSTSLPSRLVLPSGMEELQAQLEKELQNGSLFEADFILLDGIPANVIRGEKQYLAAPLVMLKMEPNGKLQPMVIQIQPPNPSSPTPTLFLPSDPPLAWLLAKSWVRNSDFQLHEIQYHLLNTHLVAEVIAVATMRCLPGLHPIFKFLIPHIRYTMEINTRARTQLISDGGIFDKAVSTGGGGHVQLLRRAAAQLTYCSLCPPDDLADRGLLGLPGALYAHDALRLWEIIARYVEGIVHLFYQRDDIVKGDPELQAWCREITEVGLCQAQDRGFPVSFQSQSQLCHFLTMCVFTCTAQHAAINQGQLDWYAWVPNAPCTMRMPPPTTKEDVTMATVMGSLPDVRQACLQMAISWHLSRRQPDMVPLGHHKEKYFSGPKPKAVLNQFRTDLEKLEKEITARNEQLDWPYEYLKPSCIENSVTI

What follows are molecules tested against Polyunsaturated fatty acid lipoxygenase ALOX12 (Homo sapiens) (UniProt P18054) (assay: Primary qHTS assay for inhibitors of human arachidonate 12S-lipoxygenase (ALOX12): Round 2). Conditions: purified 12hLO, xylenol orange hydroperoxide absorbance; activity change, negative = inhibition: at 108 µM (top of the series) unless noted.
Method in brief: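 Purified human 12hLO at 150 nM in 25 mM Hepes, 0.01% Triton X-100, pH 7.0, preincubated 15 min at room temperature with compound. Reaction started with 40 uM arachidonic acid, 30 min at room temperature. Hydroperoxide measured by Fe-xylenol orange, 573/405 nm absorbance ratio.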
In the case of `CCN(C(=O)Cn1cc(S(=O)(=O)Cc2ccccc2Cl)c2ccccc21)c1ccccc1`, the Potency is reported as inconclusive: 126 µM [inhibitor, partial curve, poor fit]. `Cc1ccc(CN2CC(Oc3ccc(-c4noc(-c5cccnc5)n4)cc3)C2)o1` was tested, and the Potency was inconclusive: 44.7 µM [inhibitor, partial curve]. For `CCOC(=O)N1CCN(S(=O)(=O)c2ccc(OCC)c3ccccc23)CC1`, the Potency was inconclusive: 25.1 µM [inhibitor, partial curve, poor fit]. For `CCN(CC)c1ccc(C(=O)N2CCCC(n3cc(-c4nc(C)no4)nn3)C2)cc1` (configuration not stated), the Potency was inconclusive: 50.1 µM [inhibitor, partial curve]. For `COc1ccc(C(=O)Nc2nc3c(s2)CCc2cc(OC)ccc2-3)cc1`, the Potency was inconclusive: 56.2 µM [inhibitor, partial curve, poor fit]. With `Fc1ccc(CNC(=S)NCc2cccs2)cc1` the Potency was inconclusive: 50.1 µM [inhibitor, partial curve, poor fit]. For `C=CCNC(=O)C(C#N)c1nc2ccccc2nc1N1CCCCC1` (configuration not stated), the Potency was inconclusive: 56.2 µM [inhibitor, single point]. For `COc1ccc(-c2nnc3ccc(NCCc4ccccc4)nn23)nc1`, the Potency was inconclusive: 35.5 µM [inhibitor, full curve, poor fit]. In the case of `COC(=O)CCN(C)CC1CCCO1` (configuration not stated), the Potency is reported as inconclusive: 35.5 µM [inhibitor, partial curve]. `c1ccc(-c2ccc(CN3CCN(c4ncccn4)CC3)cc2)cc1` was tested, and the Potency was inconclusive: 3.16 µM [inhibitor, full curve]. For `O=C1CCCN1CCCN1C(=O)[C@@H]2C[C@@H](O)CN2C2(CN(Cc3ccc(Cl)cc3)C2)C1=O`, the “activity change, negative = inhibition” value was inactive: 2.52%. `Cc1cc(OCc2nnc(SCc3ccc(Cl)cc3)n2C)ccc1Cl` was tested, and the Potency was inconclusive: 15.8 µM [inhibitor, full curve]. With `CN1CCN(CCCNC(=O)C2CCc3sc(C(=O)N4CCCCCC4)cc3C2)CC1` (configuration not stated) the “activity change, negative = inhibition” value was inactive: 7.52%. In the case of `N#C/C(=C\c1ccc2c3c(cccc13)CC2)c1nc2ccccc2[nH]1`, the Potency is reported as inconclusive: 17.8 µM [inhibitor, full curve]. In the case of `O=C(CN1CCC(C(=O)c2ccccc2)CC1)NC1CCC(C(F)(F)F)CC1` (configuration not stated), the Potency is reported as inconclusive: 7.94 µM [inhibitor, full curve, poor fit]. `COc1ccc(-c2ccc(C(=O)NC3CC(c4cc(=O)[nH]c(N)n4)C3)o2)cc1` (configuration not stated) was tested, and the “activity change, negative = inhibition” value was inactive: -62%. In the case of `CC(C)(C)NC(=O)NC(=O)COC(=O)CCCc1c[nH]c2ccccc12`, the Potency is reported as inconclusive: 39.8 µM [inhibitor, partial curve, poor fit].
